{"source": "PubChem BioAssay AID1259405 (NCATS, 2018)", "assay": "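Mouse-designed siRNAs used to find CHO productivity engineering targets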 (primary screen)", "cell system": "Chinese hamster CHO-K1 ovary cells with stable secreted eGFP expression", "reagent": "single siRNA against mouse genes, 0.8 pmol siRNA per well (2 µl of 400 nM stock)", "timing": "3 days", "measured": "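Percent of the per-plate non-targeting control median for intracellular GFP per well by laser scanning cytometry and for cell viability by ATP luminescence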", "scale": "GFP, % of control: higher = more GFP per well, higher productivity; viability (ATP), % of control: higher = more viable cells (more ATP)", "active means": "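Called active when intracellular GFP, relative to negative control, is at or above 120%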", "note": "The deposit covers about 50,000 reagents; below is a part drawn at random. Of all reagents, about 4,000 (8%) got an active call. 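Mouse siRNA library applied to hamster cells; one well for each siRNA.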 The numbers tell different reagents against one gene apart."}
{"gene knocked down": "Alg12", "reagent": 1, "GFP, % of control": 97.2, "viability (ATP), % of control": 34.8, "activity call": "inactive"}
{"gene knocked down": "Alg12", "reagent": 2, "GFP, % of control": 52.5, "viability (ATP), % of control": 59.9, "activity call": "inactive"}
{"gene knocked down": "Alg12", "reagent": 3, "GFP, % of control": 122, "viability (ATP), % of control": 59, "activity call": "active"}
{"gene knocked down": "Zfp536", "reagent": 1, "GFP, % of control": 42, "viability (ATP), % of control": 54.3, "activity call": "inactive"}
{"gene knocked down": "Zfp536", "reagent": 2, "GFP, % of control": 81.1, "viability (ATP), % of control": 80.5, "activity call": "inactive"}
{"gene knocked down": "Zfp536", "reagent": 3, "GFP, % of control": 107, "viability (ATP), % of control": 81.4, "activity call": "inactive"}
{"gene knocked down": "Slc72a1", "reagent": 1, "GFP, % of control": 89.5, "viability (ATP), % of control": 77.5, "activity call": "inactive"}
{"gene knocked down": "Slc72a1", "reagent": 2, "GFP, % of control": 106, "viability (ATP), % of control": 85.4, "activity call": "inactive"}
{"gene knocked down": "Slc72a1", "reagent": 3, "GFP, % of control": 78, "viability (ATP), % of control": 50.8, "activity call": "inactive"}
{"gene knocked down": "Ankrd61", "reagent": 1, "GFP, % of control": 41.6, "viability (ATP), % of control": 41.9, "activity call": "inactive"}
{"gene knocked down": "Ankrd61", "reagent": 2, "GFP, % of control": 61.1, "viability (ATP), % of control": 63.8, "activity call": "inactive"}
{"gene knocked down": "Ankrd61", "reagent": 3, "GFP, % of control": 124, "viability (ATP), % of control": 108, "activity call": "active"}
{"gene knocked down": "Plin4", "reagent": 1, "GFP, % of control": 194, "viability (ATP), % of control": 179, "activity call": "active"}
{"gene knocked down": "Plin4", "reagent": 2, "GFP, % of control": 59.7, "viability (ATP), % of control": 74.1, "activity call": "inactive"}
{"gene knocked down": "Plin4", "reagent": 3, "GFP, % of control": 50.9, "viability (ATP), % of control": 71.5, "activity call": "inactive"}
{"gene knocked down": "Asb10", "reagent": 1, "GFP, % of control": 29.2, "viability (ATP), % of control": 43.6, "activity call": "inactive"}
{"gene knocked down": "Asb10", "reagent": 2, "GFP, % of control": 58.9, "viability (ATP), % of control": 70, "activity call": "inactive"}
